Structures can show the parent of a compound that is named as a salt. ± gives the standard deviation of the averaged measurements. The list shows a part of the results. Most values lie within the scatter of the assay; repeated measurements hardly agree.
Each molecule was assayed on A549 (assay: surface PD-L1 immunofluorescence intensity relative to IFN-gamma-only control (ratio); higher = more PD-L1 expression). Conditions: 10 µM; exposure time 24 h; IFN-gamma 100 ng/mL.

SMILES | surface PD-L1 immunofluorescence intensity
COc1ccc(-n2nc(C(N)=O)c3c2C(=O)N(c2ccc(N4CCCCC4=O)cc2)CC3)cc1 [Apixaban] | 1.09
COc1ccc(C(C)=O)c(O)c1 [Paeonol] | 0.965
CC(C)c1nc(CN(C)C(=O)N[C@H](C(=O)N[C@@H](Cc2ccccc2)C[C@H](O)[C@H](Cc2ccccc2)NC(=O)OCc2cncs2)C(C)C)cs1 [Ritonavir] | 1.05
COc1cc2c(cc1OC)-c1cc3nc4ccccc4nc3n1C(C)(C)C2 | 0.974
CCC(CC)[C@H](NC(C)=O)[C@@H]1[C@H](O)[C@@H](C(=O)O)C[C@H]1NC(=N)N [Peramivir  Trihydrate] | 1.05
COc1ccccc1OCCNCC(O)COc1cccc2[nH]c3ccccc3c12 (centres undefined) [Carvedilol] | 0.9786 ± 0.0016
O=C(O)c1ccccc1Nc1cccc(OCc2ccc3ccccc3n2)c1 [SR 2640 hydrochloride] | 1.01
O=C(O[C@@H]1C[C@@H]2C[C@H]3C[C@H](C1)N2CC3=O)c1c[nH]c2ccccc12 [Dolasetron mesilate] | 1.09
CC(=O)NCCc1c(Cc2ccccc2)[nH]c2ccccc12 [Luzindole] | 1.01
NC1=N[C@@]2(c3cc(NC(=O)c4ccc(F)cn4)ccc3F)COC[C@H]2CS1 | 1.03
COc1ccc(COc2cc3oc(=O)c4cc(C(C)O)ccc4c3cc2OC)cc1 (centres undefined) [Palomid 529] | 0.95106 ± 0.0002
COC1=C(OC)C(=O)C(C/C=C(\C)CC/C=C(\C)CC/C=C(\C)CC/C=C(\C)CC/C=C(\C)CC/C=C(\C)CC/C=C(\C)CC/C=C(\C)CC/C=C(\C)CCC=C(C)C)=C(C)C1=O [Coenzyme Q10 (CoQ10)] | 1.03
Cc1c(OCC(F)(F)F)ccnc1C[S+]([O-])c1nc2ccccc2[nH]1 (centres undefined) [Lansoprazole] | 1.08 ± 0.12
CCN1CCN(c2cc(-c3ccc(F)cc3)c3c(n2)CCCCCC3)CC1 [Blonanserin (Lonasen)] | 1.18
C#CCN(C)CC1=Cc2ccccc2Oc2ccccc21 | 0.991
O=C1CCc2c(ccc3ccccc23)O1 [Splitomicin] | 1.04 ± 0.11
CC[C@@H]1C(=O)N(C)c2cnc(Nc3ccc(C(=O)NC4CCN(C)CC4)cc3OC)nc2N1C1CCCC1 | 1.04
Cn1c(=O)c2c(ncn2C)n(C)c1=O [Caffeine] | 0.993 ± 0.063
O=C1c2ccccc2C(Cc2ccncc2)(Cc2ccncc2)c2ccccc21 [XE 991 dihydrochloride] | 0.966
CCn1c(=O)n(C2=C(CO)CN(CC3CCCCCCC3)CC2)c2ccccc21 | 0.989
CC(C)(C)NCC(O)c1ccc(O)c(CO)c1 (centres undefined) [Salbutamol] | 0.916
CO[C@H]1C[C@@H]2CC[C@@H](C)[C@@](O)(O2)C(=O)C(=O)N2CCCC[C@H]2C(=O)O[C@H]([C@H](C)C[C@@H]2CC[C@@H](OP(C)(C)=O)[C@H](OC)C2)CC(=O)[C@H](C)/C=C(\C)[C@@H](O)[C@@H](OC)C(=O)[C@H](C)C[C@H](C)/C=C/C=C/C=C/1C [Deforolimus (MK-8669)] | 0.927
CCCCC[C@H](O)CC(=O)CCc1ccc(O)c(OC)c1 [6-Gingerol] | 1.1
CCCCC[C@H](O)CC(=O)CCc1ccc(O)c(OC)c1 [Gingerol] | 0.992
CN(C)[C@@H](CCOc1cccc2ccccc12)c1ccccc1 [Dapoxetine HCl (Priligy)] | 1.05

SMILES | surface PD-L1 immunofluorescence intensity
CN(C)CCCC1(c2ccc(F)cc2)OCc2cc(C#N)ccc21 (centres undefined) [Citalopram hydrobromide] | 1.07
CN(C)CCCC1(c2ccc(F)cc2)OCc2cc(C#N)ccc21 (centres undefined) [Citalopram Hydrobromide] | 0.963
CCCC(CCC)C(=O)O [Sodium valproate] | 1.08
CCCC(CCC)C(=O)O [Valproic acid] | 1.02 ± 0.086
CCCC(CCC)C(=O)O [Sodium Valproate] | 1.04
Cc1onc(-c2ccccc2)c1C(=O)N[C@@H]1C(=O)N2[C@@H]1SC(C)(C)[C@@H]2C(=O)O [Oxacillin sodium] | 0.969
Cc1onc(-c2ccccc2)c1C(=O)N[C@@H]1C(=O)N2[C@@H]1SC(C)(C)[C@@H]2C(=O)O [Oxacillin sodium monohydrate] | 0.928
O=C(O)CNC(=O)C(CS)Cc1ccccc1 (centres undefined) [Thiorphan] | 0.982
CC(C)c1noc(N2CCC(COc3ccc(-c4ccc(S(C)(=O)=O)cc4)nc3)CC2)n1 | 1.06
CCOC(=O)C1=CN(Cc2ccccc2)C=C(C(=O)OCC)C1c1ccccc1 | 0.943
CC[C@H](Nc1ncnc2[nH]cnc12)c1nc2cccc(F)c2c(=O)n1-c1ccccc1 | 1.02
CCC(=O)NCC[C@@H]1CCc2ccc3c(c21)CCO3 [Ramelteon (TAK-375)] | 1.09
C[C@H](NC(=O)/C(C#N)=C/c1ccc(O)c(O)c1)c1ccccc1 [Tyrphostin B44, (+) enantiomer] | 0.994
O=S(=O)(NCCNC/C=C/c1ccc(Br)cc1)c1cccc2cnccc12 | 0.907
O=S(=O)(NCCNC/C=C/c1ccc(Br)cc1)c1cccc2cnccc12 [H 89 dihydrochloride] | 0.988
COc1ccc(-c2coc3cc(O)cc(O)c3c2=O)cc1 [Biochanin A (4-Methylgenistein)] | 1.03
COc1ccccc1N1CCN(CCN2C(=O)CC3(CCCC3)CC2=O)CC1 [BMY 7378 dihydrochloride] | 1.09
CCN(CC)CCCCC1CCN(CC(=O)N2c3ccccc3C(=O)Nc3cccnc32)CC1 | 0.998
CN(C)CCC(c1ccc(Cl)cc1)c1ccccn1 (centres undefined) [Chlorpheniramine maleate] | 0.912
COc1cc(N)c(Cl)cc1C(=O)NC1CCN(CCCOc2ccc(F)cc2)CC1OC (centres undefined) [Cisapride] | 1.03 ± 0.025
CC[N+](C)(CC)CCC[n+]1c(-c2ccccc2)c2cc(N)ccc2c2ccc(N)cc21 [Propidium iodide] | 1.14
O=C(O)c1ccccc1Nc1cccc(C(F)(F)F)c1 [Flufenamic acid] | 0.976 ± 0.13
O=C(O)Cn1nnc(-c2cc(N3CCC(Oc4cc(F)ccc4Br)CC3)no2)n1 | 1.11
O=C(c1ccc(F)cc1)C1CCN(CCn2c(=S)[nH]c3ccccc3c2=O)CC1 [Altanserin hydrochloride] | 0.997

A portion of the results above, for reference:
SMILES | surface PD-L1 immunofluorescence intensity
CC[N+](C)(CC)CCC[n+]1c(-c2ccccc2)c2cc(N)ccc2c2ccc(N)cc21 [Propidium iodide] | 1.14
O=C(O)c1ccccc1Nc1cccc(C(F)(F)F)c1 [Flufenamic acid] | 0.976 ± 0.13

Quoted from the listing:
CC[N+](C)(CC)CCC[n+]1c(-c2ccccc2)c2cc(N)ccc2c2ccc(N)cc21 [Propidium iodide] | surface PD-L1 immunofluorescence intensity: 1.14
Cc1onc(-c2ccccc2)c1C(=O)N[C@@H]1C(=O)N2[C@@H]1SC(C)(C)[C@@H]2C(=O)O [Oxacillin sodium monohydrate] | surface PD-L1 immunofluorescence intensity: 0.928
